Drawing on patent US20190328836A1, this text covers binding for one substance.

Amino acid sequences for entries named in this document (tags omitted). A change or cut given only in a name is not applied to a line headed by its entry.
UniProt Q9JLV1: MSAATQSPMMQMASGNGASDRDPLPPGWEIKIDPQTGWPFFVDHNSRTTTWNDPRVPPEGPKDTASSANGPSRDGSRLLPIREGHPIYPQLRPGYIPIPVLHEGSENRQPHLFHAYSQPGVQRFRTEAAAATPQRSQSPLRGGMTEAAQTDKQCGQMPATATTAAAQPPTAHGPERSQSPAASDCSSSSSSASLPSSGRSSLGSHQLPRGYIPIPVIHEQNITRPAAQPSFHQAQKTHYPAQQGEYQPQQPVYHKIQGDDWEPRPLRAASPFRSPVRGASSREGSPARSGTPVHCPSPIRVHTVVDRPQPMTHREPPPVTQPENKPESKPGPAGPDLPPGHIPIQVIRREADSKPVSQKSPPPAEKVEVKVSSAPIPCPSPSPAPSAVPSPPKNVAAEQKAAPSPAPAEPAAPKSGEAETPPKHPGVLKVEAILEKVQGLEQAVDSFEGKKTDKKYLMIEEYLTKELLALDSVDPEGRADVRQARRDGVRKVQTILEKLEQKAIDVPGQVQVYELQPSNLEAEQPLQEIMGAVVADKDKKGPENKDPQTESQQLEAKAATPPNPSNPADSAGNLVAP

Test [1] deals with T1, HspB8 (small heat shock protein) (mouse (BALB/c primary muscle cells)) (UniProt Q9JK92).
T1 sequence (looked up): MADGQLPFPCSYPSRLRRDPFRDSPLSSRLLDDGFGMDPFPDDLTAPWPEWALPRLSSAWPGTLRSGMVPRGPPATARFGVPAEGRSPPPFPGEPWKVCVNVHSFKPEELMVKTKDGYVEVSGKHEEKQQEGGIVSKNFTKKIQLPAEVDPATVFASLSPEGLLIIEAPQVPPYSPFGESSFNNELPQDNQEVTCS
The test can be described thus: co-immunoprecipitation of FLAG-tagged BAG3 from BALB/c primary muscle cell lysates after experimental ischemia, western blot. (In general: A western blot detects proteins with antibodies after separation by electrophoresis.)

In test [2] the target is T1, HspB8 (small heat shock protein) (mouse (BALB/c primary muscle cells)). The test can be described thus: co-immunoprecipitation of FLAG-BAG3 from total cell lysates, western blot (FIG. 8B).

No constants are given. Whether binding was seen depends on the method and setting. In cells and extracts the contact can be indirect. Some results given as binding are weak or reduced against the parent protein; the word gives no strength.

“BAG3^Ile81 (mouse Bcl-2-associated athanogene-3, BL6 variant with isoleucine at residue 81), C-terminal FLAG-tagged (from UniProt Q9JLV1 1-577)”: the binding result in test [1] and in test [2] was “binds” throughout.
